Some of the results follow. Further columns of the screen follow, without active or inactive calls. The list favours compounds with an active or inconclusive main result. Words in brackets tell the shape of the fitted curve; partial curves, single points and poor fits give uncertain potencies.
Experiment: qHTS Assay for Lipid Storage Modulators in Drosophila S3 Cells;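 on cell number change: cells counted by Cell Tracker Red CMTPX staining in the red channel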
Conditions: BODIPY lipid droplet fluorescence, 18-24 h; for cell number change: measured here: cell count max response, cells fed with added oleic acid
How it was run: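 Laser-scanning cytometry quantifies lipid droplet accumulation (500–530 nm total intensity; droplet/cell object ratio) in oleic acid-fed (400 uM added) Drosophila S3 cells treated with a concentration series. 20 uM Triacsin C defined 100% inhibition.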

[1] = measured here: cell number channel AC50, cells fed with added oleic acid
[2] = measured here: lipid fluorescence (Fed channel) AC50, cells fed with added oleic acid

| Structure (SMILES) | cell number change | AC50 [1] | AC50 [2] |
| --- | --- | --- | --- |
| CCC[C@H](CN[C@@H](CNC)[C@H](C)O)NCCc1ccc(OC)cc1 | 2.99% | – | – |
| O=C(OCC(=O)N(CCc1ccccc1)Cc1ccccc1)c1ccccc1O | 108% | 14.6 µM [rising, partial curve] | – |
| Cc1cc(C)n2nc(SCC(=O)N(CC(C)C)c3c(N)n(CC(C)C)c(=O)[nH]c3=O)nc2n1 | 4.51% | – | 13 µM [falling, partial curve] |
| C#CCOc1c(Br)cc(/C=N\NC(=O)CN2CCOCC2)cc1OCC | 8.27% | 6.51 µM [rising, single point] | – |
| O=C(Oc1ccccc1N1CCOCC1)c1ccccc1 | 27.2% | – | 4.61 µM [rising, full curve] |
| N#C/C(=C\c1ccc2c(c1)OCCO2)C(=O)Nc1nccs1 | -35.2% | 32.6 µM [falling, single point] | 0.206 µM [falling, single point] |
| O=C(O)CCC(NC(=S)Nc1ccccc1)C(=O)O (stereo not given) | -18.5% | – | – |
| Cc1ccc(CNCc2ccco2)cc1 | -2.38% | – | 20.6 µM [rising, single point] |
| Cc1ncc2c(c1OC(=O)c1ccccc1)COC(C)(C)OC2 | -0.23% | – | 4.11 µM [rising, partial curve] |
| Cc1ccc(-c2csc3ncnc(NCCC(=O)O)c23)cc1 | -9.47% | – | – |
| COc1cc(NC(=O)C2CCCO2)c(OC)cc1NC(=O)c1ccccc1 (stereo not given) | 4.18% | – | 2.59 µM [rising, full curve] |
| Cc1ccc(S(=O)(=O)NCCC(=O)N2CCOCC2)cc1C | -9.35% | – | 0.651 µM [falling, full curve, poor fit] |
| CCOc1ccc(OCc2ccc(C(=O)NCc3ccncc3)o2)cc1 | 0.625% | – | 6.51 µM [rising, partial curve, poor fit] |
| COc1cc(NC(=O)c2cc(C(C)C)on2)c(OC)cc1Cl | 32.8% | 9.2 µM [rising, partial curve] | 6.51 µM [rising, single point] |
| CCCCN(C(=O)Cc1ccc(S(=O)(=O)N2CCOCC2)s1)c1c(N)n(CCCC)c(=O)[nH]c1=O | – | 6.51 µM [rising, single point] | 29.1 µM [rising, single point] |
| Cc1ccc(CN(C)C(=O)CN2C(=O)NC3(CCCC3)C2=O)o1 | -45.3% | 23.1 µM [falling, partial curve, poor fit] | 20.6 µM [falling, partial curve, poor fit] |
| CCOCCCn1c(SCC(=O)Nc2cc(OC)ccc2OC)nc2ccccc2c1=O | 2.33% | – | – |
| O=C(C1CCN(S(=O)(=O)c2ccc(Br)s2)CC1)N1CCN(c2ccccc2)CC1 | 3.15% | – | 0.116 µM [rising, full curve, poor fit] |
| CSc1nnc(C)c(/C=C/NOCc2ccc(Cl)cc2)n1 | 31.6% | 0.116 µM [rising, partial curve, poor fit] | 6.51 µM [rising, single point] |

Among those listed so far, 2 have a Cl atom.

| Structure (SMILES) | cell number change | AC50 [1] | AC50 [2] |
| --- | --- | --- | --- |
| COc1cc(NC(=O)c2cc(C(C)C)on2)c(OC)cc1Cl | 32.8% | 9.2 µM [rising, partial curve] | 6.51 µM [rising, single point] |
| CSc1nnc(C)c(/C=C/NOCc2ccc(Cl)cc2)n1 | 31.6% | 0.116 µM [rising, partial curve, poor fit] | 6.51 µM [rising, single point] |

Continuation:

| Structure (SMILES) | cell number change | AC50 [1] | AC50 [2] |
| --- | --- | --- | --- |
| O=C(N=C1SC2CS(=O)(=O)CC2N1Cc1ccc(Cl)cc1)C1CCCO1 (stereo not given) | 2.29% | 6.51 µM [rising, single point] | 6.51 µM [rising, single point] |
| Clc1ccc(-c2ccc(/C=N/Nc3nncc(-c4ccccc4)n3)o2)cc1 | 53.8% | 0.146 µM [rising, full curve] | – |
| Oc1ccc(N=Nc2cccc(C(F)(F)F)c2)cc1C=Nc1ccc(N2CCOCC2)cc1 | -5.01% | – | 8.2 µM [falling, partial curve] |
| Cc1cc(NC(=O)c2ccc(C)c(C)c2)no1 | -1.09% | – | 29.1 µM [rising, single point] |
| CCCC(C)C(=O)NCc1ccc2c(c1)OCO2 (stereo not given) | 42.3% | 4.61 µM [rising, partial curve] | – |
| Cc1ccccc1-n1c(-c2cccnc2)n[nH]c1=S | 7.53% | – | 0.146 µM [rising, full curve, poor fit] |
| COc1ccc(CCN2C(=O)NC(NS(=O)(=O)c3ccc(NC(C)=O)cc3)(C(F)(F)F)C2=O)cc1OC (stereo not given) | -3.69% | 0.00517 µM [falling, full curve, poor fit] | 0.00517 µM [falling, full curve, poor fit] |
| COc1cc(OC)c(/C=C2\SC(=O)N(CC(=O)Nc3ccccc3F)C2=O)c(OC)c1 | 37.8% | 4.11 µM [rising, partial curve, poor fit] | 3.66 µM [falling, full curve] |
| Cc1c(Cl)cccc1NCC(=O)Nc1ccc(Cl)cc1F | -40.2% | 14.6 µM [falling, partial curve] | 16.4 µM [falling, partial curve, poor fit] |
| Cc1ccc(S(=O)(=O)N(C)CC(=O)NCC(c2ccco2)N(C)C)cc1 (stereo not given) | -11.2% | – | 0.731 µM [falling, full curve, poor fit] |
| Cn1c(N)c(C(=O)COC(=O)c2ccccc2C(=O)c2ccccc2)c(=O)n(C)c1=O | -10.9% | – | 7.31 µM [falling, partial curve, poor fit] |
| c1ccc(-c2cn(-c3ccccc3)c3[n+]2CCS3)cc1 | -22.4% | 6.51 µM [rising, single point] | – |
| CCCCn1c(N)c(N(CC(C)C)C(=O)Cc2ccc3c(c2)OCCO3)c(=O)[nH]c1=O | -75% | 29.1 µM [falling, single point] | – |
| COc1ccc(/C=C2\Oc3cc(OC(=O)N4CCOCC4)ccc3C2=O)cc1 | 10.2% | – | 0.92 µM [rising, partial curve] |
| Cc1nn(CC(=O)NCc2ccccc2)c(C)c1[N+](=O)[O-] | -15.4% | – | 4.11 µM [falling, full curve, poor fit] |
| CCS(=O)(=O)c1ccc2oc(Nc3ccc(C(C)(C)C)cc3)nc2c1 | -23.2% | – | – |
| COc1ccc(S(=O)(=O)N2CCC(C(=O)NC3CCCC3)CC2)cc1C | -14.5% | – | – |
| CC(C)CCN(C(=O)CCSc1ccc(F)cc1)c1c(N)n(Cc2ccccc2)c(=O)[nH]c1=O | -25.5% | – | – |
